Experimental data taken from US20220089663A1 (MEMORIAL SLOAN KETTERING CANCER CENTER, priority 2019, published 2022).

Assay: general procedure: Fmoc solid-phase peptide synthesis; Rink-amide resin
Conditions: conjugation step

| Substance | final HPLC purity (analytical RP-HPLC, area under the curve, several disulfide bridges, sequence written open) | conjugation yield (from Hsp1a peptide, several disulfide bridges, sequence written open) | conjugation yield (from Hs1a peptide) |
| --- | --- | --- | --- |
| YCQK(BODIPY)FLWTCDSERPCCEGLVCRLWCKIN-NH2 | 83% | 55% | – |
| GNDCLGFWSACNPK(Cy7.5)NDKCCANLVCSSKHKWCKGKL | – | – | 14% |
